These are yes or no findings as the source states them, for the method shown. Some binding calls cover weakened binding; strength is not graded here. Where a sequence is shown, tags or fusion partners need not be part of it.

The chains behind the UniProt entries cited, without tags or fusion partners.
UniProt Q04207: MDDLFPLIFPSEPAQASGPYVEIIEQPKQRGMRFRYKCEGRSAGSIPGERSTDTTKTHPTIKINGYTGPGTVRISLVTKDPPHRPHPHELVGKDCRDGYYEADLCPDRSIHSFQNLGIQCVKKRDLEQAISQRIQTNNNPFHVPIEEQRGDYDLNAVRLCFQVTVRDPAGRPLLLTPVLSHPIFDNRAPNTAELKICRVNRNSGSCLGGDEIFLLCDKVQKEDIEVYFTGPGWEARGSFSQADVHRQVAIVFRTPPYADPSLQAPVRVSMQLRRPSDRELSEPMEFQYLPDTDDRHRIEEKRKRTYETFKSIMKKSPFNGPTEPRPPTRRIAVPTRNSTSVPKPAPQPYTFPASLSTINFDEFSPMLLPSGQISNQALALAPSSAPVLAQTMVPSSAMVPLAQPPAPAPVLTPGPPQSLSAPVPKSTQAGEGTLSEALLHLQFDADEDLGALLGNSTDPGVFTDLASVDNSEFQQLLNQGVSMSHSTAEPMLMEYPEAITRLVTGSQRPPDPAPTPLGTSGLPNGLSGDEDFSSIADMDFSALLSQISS

1 molecule from patent publication US6730302 can be followed below.

For this experiment, the target named is endogenous NF-kB p65 subunit of 70Z/3 cells (mouse) (UniProt Q04207). Description: EMSA supershift; both found in the same specific DNA-binding complex.

B1: Hsp70/10-p50 fusion protein (protein, not shown: small tags and cut ends)
chain: LPTDGPYLQILEQPKQRGFRFRYVCEGPSHGGLPGASSEKNKKSYPQVKICNYVGPAKVIVQLVTNGKNIHLHAHSLVGKHCEDGICTVTAGPKDMVVGFANLGILHVTKKKVFETLEARMTEACIRGYNPGLLVHPDLAYLQAEGGGDRQLGDREKELIRQAALQQTKEMDLSVVRLMFTAFLPDSTGSFTRRLEPVVSDAIYDSKAPNASNLKIVRMDRTAGCVTGGEEIYLLCDKVQKDDIQIRFYEEEENGGVWEGFGDFSPTDVHRQFAIVFKTPKYKDINITKPASVFVQLRRKSDLETSEPKPFLYYPEIKDKEEVQRKRQKLMPNFSDSFGGGSGAGAGGGGMFGSGGGGGGTGSTGPGYSFPHYKSAVEDEGLKGKISEADKKKVLDKCQEVISWLDANTLAEKDEFEHKRKELEQVCNPIISGLYQGAGGPGPGGFGAQGPKGGSGSGPTIEEVD
B1: the binding entry was “binds”.
